Binding data for four molecules are collected here from paper PMC12209112.

Protein sequences, listed by entry. Tags and fused reporters are not part of them. Residues count along the entry.
UniProt P35465: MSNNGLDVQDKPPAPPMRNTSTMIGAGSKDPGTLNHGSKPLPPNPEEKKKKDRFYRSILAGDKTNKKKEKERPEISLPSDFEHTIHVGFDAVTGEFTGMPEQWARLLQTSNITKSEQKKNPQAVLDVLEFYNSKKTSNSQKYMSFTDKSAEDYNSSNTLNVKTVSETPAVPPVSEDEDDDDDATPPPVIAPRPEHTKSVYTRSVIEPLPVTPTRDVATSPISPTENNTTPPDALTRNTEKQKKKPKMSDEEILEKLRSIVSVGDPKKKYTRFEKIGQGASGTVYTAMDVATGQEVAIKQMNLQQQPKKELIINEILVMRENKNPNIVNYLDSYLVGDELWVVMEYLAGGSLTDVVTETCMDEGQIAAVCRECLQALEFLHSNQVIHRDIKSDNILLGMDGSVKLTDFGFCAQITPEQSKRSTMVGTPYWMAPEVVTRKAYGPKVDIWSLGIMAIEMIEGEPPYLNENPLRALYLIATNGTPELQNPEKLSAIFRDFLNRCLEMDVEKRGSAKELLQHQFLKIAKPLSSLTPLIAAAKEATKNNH
UniProt P20786, residues 24-1088: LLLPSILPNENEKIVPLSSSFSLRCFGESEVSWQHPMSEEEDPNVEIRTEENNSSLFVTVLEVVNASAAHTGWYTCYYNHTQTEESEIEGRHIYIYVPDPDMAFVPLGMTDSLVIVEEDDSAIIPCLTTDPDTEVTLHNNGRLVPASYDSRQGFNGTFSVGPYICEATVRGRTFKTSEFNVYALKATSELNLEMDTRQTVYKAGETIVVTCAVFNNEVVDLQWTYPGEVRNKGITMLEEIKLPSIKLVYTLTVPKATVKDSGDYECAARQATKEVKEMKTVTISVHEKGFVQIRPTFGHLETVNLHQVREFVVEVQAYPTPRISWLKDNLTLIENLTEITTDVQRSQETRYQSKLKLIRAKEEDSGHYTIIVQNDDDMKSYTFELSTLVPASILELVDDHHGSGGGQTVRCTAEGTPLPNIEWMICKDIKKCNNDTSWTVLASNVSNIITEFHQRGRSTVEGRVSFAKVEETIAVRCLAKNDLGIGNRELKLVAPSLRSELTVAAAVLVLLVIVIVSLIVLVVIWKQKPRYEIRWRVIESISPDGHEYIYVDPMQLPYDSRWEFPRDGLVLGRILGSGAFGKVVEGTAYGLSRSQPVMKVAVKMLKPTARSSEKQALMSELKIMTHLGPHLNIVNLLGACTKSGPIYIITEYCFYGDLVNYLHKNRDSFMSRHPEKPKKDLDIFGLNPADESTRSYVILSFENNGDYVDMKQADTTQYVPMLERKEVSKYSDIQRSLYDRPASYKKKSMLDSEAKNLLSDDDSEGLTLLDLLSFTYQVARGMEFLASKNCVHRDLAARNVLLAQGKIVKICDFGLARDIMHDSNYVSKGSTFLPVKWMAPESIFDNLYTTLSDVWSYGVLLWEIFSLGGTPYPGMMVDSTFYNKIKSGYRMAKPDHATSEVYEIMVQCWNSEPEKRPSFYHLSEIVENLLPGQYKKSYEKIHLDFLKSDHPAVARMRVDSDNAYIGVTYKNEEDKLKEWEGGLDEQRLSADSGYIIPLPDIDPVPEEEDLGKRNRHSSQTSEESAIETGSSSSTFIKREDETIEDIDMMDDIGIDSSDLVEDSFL
UniProt Q63570: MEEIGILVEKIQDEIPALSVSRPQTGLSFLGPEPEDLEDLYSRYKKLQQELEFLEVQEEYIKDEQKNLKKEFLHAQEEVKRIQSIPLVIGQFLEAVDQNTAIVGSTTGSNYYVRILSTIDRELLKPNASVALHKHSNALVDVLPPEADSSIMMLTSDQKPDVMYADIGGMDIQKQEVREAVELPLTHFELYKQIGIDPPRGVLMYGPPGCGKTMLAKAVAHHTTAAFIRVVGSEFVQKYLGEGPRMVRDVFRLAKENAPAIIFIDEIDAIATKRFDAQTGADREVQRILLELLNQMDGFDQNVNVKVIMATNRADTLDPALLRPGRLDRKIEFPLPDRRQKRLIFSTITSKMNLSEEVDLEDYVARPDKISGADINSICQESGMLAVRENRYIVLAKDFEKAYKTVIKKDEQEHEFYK
UniProt P62198: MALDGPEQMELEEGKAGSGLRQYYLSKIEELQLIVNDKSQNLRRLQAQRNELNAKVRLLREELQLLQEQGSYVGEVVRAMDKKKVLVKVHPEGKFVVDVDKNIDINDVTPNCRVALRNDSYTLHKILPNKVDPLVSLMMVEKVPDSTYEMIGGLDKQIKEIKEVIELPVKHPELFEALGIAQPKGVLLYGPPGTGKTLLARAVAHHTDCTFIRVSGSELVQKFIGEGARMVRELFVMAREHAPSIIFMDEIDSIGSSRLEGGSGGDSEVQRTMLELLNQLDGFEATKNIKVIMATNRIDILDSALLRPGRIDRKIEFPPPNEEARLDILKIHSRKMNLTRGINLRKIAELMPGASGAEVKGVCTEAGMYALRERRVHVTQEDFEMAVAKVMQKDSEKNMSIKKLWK

Where two headings read alike, the source gives them in different places. These are yes or no findings as the source states them, for the method shown. Binding seen in cells or lysates may run through a third protein. Here binding means that the protein was enriched with, or labelled near, the bait; the list need not be complete.

Assay [1] deals with p21-activated kinase 1 (PAK1) (rat (endogenous in primary rat OPCs)) (UniProt P35465). As to the kind of experiment: affinity purification with mass spectrometry; 1 mg lysate of primary rat OPCs or differentiating OLs incubated overnight at 4 °C with 10 µg PAK1 antibody (#2602) or rabbit IgG isotype control; Protein A/G magnetic beads; on-bead trypsin digestion; LC-MS/MS.
Assay [2] shares this target. The assay is described as above. This is another data set of the same source.

Regarding “PDGFRa (from UniProt P20786 24-1088) (receptor)”, the binding entry in assay [1] is recorded as “binds”.

Psmc4 (from UniProt Q63570 1-418): the binding result in assay [1] is “binds”.

With Psmc5 (from UniProt P62198 1-406), in assay [1], the binding result was “binds”.

B1: Xpnpep1 (protein, UniProt O54975 1-623)
chain: MAPKVTSELLRQLRQAMRNSECVAEPIQAYIIPSGDAHQSEYIAPCDCRRAFVSGFDGSAGTAIITEEHAAMWTDGRYFLQAAKQMDNNWTLMKMGLKDTPTQEDWLVSVLPEGSRVGVDPLIIPTDYWKKMAKVLRSAGHHLVPVKENLVDKIWTDRPERPCKPLLTLGLDYTGISWKEKVADLRLKMAERSIVWFVVTALDEIAWLFNLRGSDVEHNPVFFSYAIIGLERIMLFIDGDRIDAPGVKQHLLLDLGLEAEYKIQVLPYKSILSELKTLCADLSPREKVWVSDKASYAVSEAIPKDHRCCMPYTPICIAKAVKNSAESAGMRRAHIKDAVALCELFNWLEQEVPKGGVTEISAADKAEEFRRQQADFVDLSFPTISSTGPNGAIIHYAPIPETNRTLSLDEVYLIDSGAQYKDGTTDVTRTMHFGTPTAYEKECFTYVLKGHIAVSAAVFPTGTKGHLLDSFARSALWDSGLDYLHGTGHGVGSFLNVHEGPCGISYKTFSDEPLEAGMIVTDEPGYYEDGAFGIRIENVVLVVPAKTKYNFNNRGSLTFEPLTLVPIQTKMIDVDALTDKECDWLNSYHQTCRDVIGKELQTQGRQEALEWLLRETEPISRQH
Regarding B1, in assay [2], the binding entry is recorded as “binds”.
